Some compounds share one wording; it may come from a single statement.
Assay: Base triggering of chemiluminescence of hydroxy-substituted dioxetanes
Type: physicochemical
Details: for base-induced decomposition, chemiluminescence: room temperature

Row | Compound | chemiluminescence with other bases (methanol with KOH or o-xylene with n-BuLi) | base-induced decomposition, chemiluminescence
1 | COC1(c2ccc3cc(O)ccc3c2)OOC12C1CC3CC(C1)CC2C3 (stereo not shown) [Dioxetane 2b, 4-(6-Hydroxy-2-naphthyl)-4-methoxyspiro[1,2-dioxetane-3,2'-adamantane]] | bright blue chemiluminescence with similar decay rates | 
2 | Oc1ccc2c(c1)C1(OOC13C1CC4CC(C1)CC3C4)c1ccccc1-2 (stereo not shown) [Dioxetane 4a] |  | produced chemiluminescence at room temperature
3 | Oc1ccc2c(c1)Oc1ccccc1C21OOC12C1CC3CC(C1)CC2C3 (stereo not shown) [Dioxetane 6a] |  | produced chemiluminescence at room temperature
4 | COC1(c2cccc(O)c2)OOC12C1CC3CC(C1)CC2C3 (stereo not shown) [Dioxetane 8a] |  | produced chemiluminescence at room temperature
